PubChem BioAssay AID1259308 | NCATS | 2017

Test: 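Candidate targets for better recombinant protein yield in mammalian cells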 (primary screen)
Cells: human HEK293 embryonic kidney cells stably expressing firefly luciferase (HEK-CMV-Luc2-Hygro)
Reagent: single siRNA against human genes, 0.8 pmol siRNA per well
Time to read-out: 72 h
Detection: 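Luciferase light (ONE-Glo) measured on one replicate plate set and viability (CellTiter-Glo) on the other, scaled to a negative control siRNA, with robust z-scores and luciferase per cell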
Direction: total luciferase, z-score and total luciferase, % of control: higher = more reporter protein produced
Call rule: 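An siRNA counts as active if its total luciferase robust z-score exceeds 3; genes with two or more such siRNAs out of three were retested with fresh siRNAs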
Meaning of the calls: active = raised luciferase; inactive = no rise
Here is an unselected part of about 59,000 reagents tested. About 1,510 of them (2.6%) were called active. 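Calls use total luciferase alone and ignore viability, so some active siRNAs may act by altering cell number.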 The numbers tell different reagents against one gene apart. Not all columns of the deposit are shown.

target,siRNA no.,"total luciferase, z-score","total luciferase, % of control",activity call
GABRR2 (gamma-aminobutyric acid type A receptor subunit rho2),1,-1.2,57.9,inactive
GABRR2 (gamma-aminobutyric acid type A receptor subunit rho2),2,0.397,89.8,inactive
GABRR2 (gamma-aminobutyric acid type A receptor subunit rho2),3,0.415,90.1,inactive
DUSP9 (dual specificity phosphatase 9),1,1.28,107,inactive
DUSP9 (dual specificity phosphatase 9),2,3.67,155,active
DUSP9 (dual specificity phosphatase 9),3,-1.51,51.9,inactive
MRPS18A (mitochondrial ribosomal protein S18A),1,1.09,104,inactive
MRPS18A (mitochondrial ribosomal protein S18A),2,0.786,97.5,inactive
MRPS18A (mitochondrial ribosomal protein S18A),3,-1.09,60.1,inactive
CCDC149 (coiled-coil domain containing 149),1,-1.43,53.5,inactive
CCDC149 (coiled-coil domain containing 149),2,-0.491,72.1,inactive
CCDC149 (coiled-coil domain containing 149),3,-1.36,54.9,inactive
HMGB1P22 (high mobility group box 1 pseudogene 22),1,0.214,86.1,inactive
HMGB1P22 (high mobility group box 1 pseudogene 22),2,-0.0818,80.3,inactive
HMGB1P22 (high mobility group box 1 pseudogene 22),3,-1.65,49.1,inactive
ASPRV1 (aspartic peptidase retroviral like 1),1,0.476,91.4,inactive
ASPRV1 (aspartic peptidase retroviral like 1),2,1.15,105,inactive
ASPRV1 (aspartic peptidase retroviral like 1),3,1.77,117,inactive
DUSP5 (dual specificity phosphatase 5),1,1.49,111,inactive
DUSP5 (dual specificity phosphatase 5),2,0.112,84.1,inactive
DUSP5 (dual specificity phosphatase 5),3,1.07,103,inactive
ARMC10P1 (armadillo repeat containing 10 pseudogene 1),1,-0.428,73.4,inactive
ARMC10P1 (armadillo repeat containing 10 pseudogene 1),2,-0.222,77.5,inactive
ARMC10P1 (armadillo repeat containing 10 pseudogene 1),3,1.07,103,inactive
KIF20A (kinesin family member 20A),1,1.68,115,inactive
KIF20A (kinesin family member 20A),2,0.693,95.7,inactive
KIF20A (kinesin family member 20A),3,2.14,124,inactive
ZNRF2 (zinc and ring finger 2),1,2.34,129,inactive
ZNRF2 (zinc and ring finger 2),2,0.0525,82.9,inactive
ZNRF2 (zinc and ring finger 2),3,0.499,91.8,inactive
SLC35C1,1,0.315,88.2,inactive
SLC35C1,2,-0.822,65.5,inactive
SLC35C1,3,-0.526,71.4,inactive
ZNF24 (zinc finger protein 24),1,-0.0144,81.6,inactive
ZNF24 (zinc finger protein 24),2,-1.24,57.3,inactive
ZNF24 (zinc finger protein 24),3,0.588,93.6,inactive
OR4D9 (olfactory receptor family 4 subfamily D member 9),1,1.39,110,inactive
OR4D9 (olfactory receptor family 4 subfamily D member 9),2,-0.102,79.9,inactive
OR4D9 (olfactory receptor family 4 subfamily D member 9),3,0.735,96.5,inactive

3 successive reagents already listed, quoted:
target,siRNA no.,"total luciferase, z-score","total luciferase, % of control",activity call
HMGB1P22 (high mobility group box 1 pseudogene 22),1,0.214,86.1,inactive
HMGB1P22 (high mobility group box 1 pseudogene 22),2,-0.0818,80.3,inactive
HMGB1P22 (high mobility group box 1 pseudogene 22),3,-1.65,49.1,inactive
